# Measured values published in PubChem BioAssay AID1745850 (National Center for Advancing Translational Sciences (NCATS), 2022).
# The campaign covered roughly 2,100 compounds. About 260 (12%) were called active. The shares of active, inactive and inconclusive entries below differ from those in the screen. Calls come from the whole dose curve; as a rule, active = well fitted cell-killing curve with a large enough effect; inconclusive = small, poorly fitted or top-dose-only effect, or effect the other way; inactive = flat fitted curve, though single readings scatter. Where the call is inconclusive, the potency comes from a doubtful curve fit.
# Test: Viability Counterscreen for Confirmatory qHTS for Inhibitors of ATXN expression; note: nearly all actives have a fitted effect of over 50% in size
# Conditions: HEK-293 ATXN2-luc cells viability, CellTiter-Fluor, 24 h; activity change, negative = cytotoxicity: at 11.5 µM (top of the series) unless noted
# In short: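 Cells with an ATXN2-luciferase reporter were dosed in a dilution series for 24 h at 37 degrees C. Viability was read first with Gly-Phe-AFC at 25 uM final (fluorescence, ex 405/em 540), then SteadyGlo luminescence. Medium-only wells defined 100% inhibition.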
# Potency is the fitted concentration of half-maximal effect.
Compound,Potency,"activity change, negative = cytotoxicity"
Oc1c(C(c2ccccn2)N2CCCCC2)cc(Cl)c2cccnc12 (stereo unspecified),"inconclusive: 22.4 µM [cytotoxic, partial curve, poor fit]",
CO[C@@]12[C@@H]3N[C@@H]3CN1C1=C(C(=O)C(N)=C(C)C1=O)[C@@H]2COC(N)=O,,inactive: 9.55%
S=C(NC1CCCCC1)N1CCOCCOCCN(C(=S)NC2CCCCC2)CCOCCOCC1,"inconclusive: 3.16 µM [cytotoxic, partial curve]",
CC(=O)c1cccc(-c2csc3ncnc(Sc4nnnn4C)c23)c1,active: 11.2 µM,
COc1ccc(Cn2c(O)c(/C=N/NC(=O)c3cccnc3)c3ccccc3c2=O)cc1,,inactive: 15.3% [at 57.5 µM]
COc1ccc(-n2nc(C(=O)NCC(=O)Nc3cccc(Cl)c3)c3ccccc3c2=O)cc1OC,"inconclusive: 10 µM [cytotoxic, partial curve, poor fit]",
Cc1ccc(CN2CC(C(=O)Nc3ncc(C)s3)CC2=O)cc1 (stereo unspecified),,inactive: -7.83%
NC(Cc1ccc(F)cc1)c1csc(Nc2cc(NCc3ccco3)ncn2)n1 (stereo unspecified),,inactive: -10.8%
COc1cccc(CN(C)C(=O)CNC(=O)c2ccc(-c3ccccc3)cc2)c1OC,"inconclusive: 20 µM [cytotoxic, partial curve]",
OC(c1ccccc1)(c1nc(-c2cc3ccccc3o2)cs1)C(F)(F)F (stereo unspecified),,inactive: -13% [at 57.5 µM]
CCOC(=O)N1CCN(c2ncnc3c2[nH]c2ccc(F)cc23)CC1,"inconclusive: 25.1 µM [cytotoxic, partial curve]",
COc1cccc(C(=O)N2N=C(c3ccccn3)CC2(O)C(F)(F)F)c1 (stereo unspecified),"inconclusive: 3.16 µM [cytotoxic, single point]",
COc1ccc2nc(C)cc(NCc3ccc(F)cc3)c2c1,"inconclusive: 5.62 µM [cytotoxic, single point]",
Oc1c(C(Nc2nccs2)c2ccc(C(F)(F)F)cc2)ccc2cccnc12 (stereo unspecified),active: 15.8 µM,
CCc1nc2c(OCc3ccc(Cl)cc3)cccn2c1N(C=O)Cc1ccc(OC)cc1,"inconclusive: 39.8 µM [cytotoxic, single point]",
N/C(=N\NC(=O)c1sccc1OCc1ccc(Cl)cc1Cl)c1ccccn1,"inconclusive: 31.6 µM [cytotoxic, single point]",
COC(=O)[C@H]1C[C@H](OC(=O)NC2CC2)[C@@]2(O)CN(S(=O)(=O)c3ccc(C)cc3)CC2[C@H]1C(=O)OC (stereo partly specified),,inactive: -1.83%
CCCOc1ccc(/C=C/C(=O)Nc2ccc([N+](=O)[O-])cc2)cc1,"inconclusive: 3.55 µM [cytotoxic, partial curve, poor fit]",
COc1cccc(S(=O)(=O)NCc2ccc(C(=O)Nc3cccc(Cl)c3)cc2)c1,active: 20 µM,
CCC(CC)C(=O)c1c[nH]c(C(=O)NCc2ccccn2)c1,,inactive: -5.14% [at 57.5 µM]
COc1ccc(C(=O)N2CCN(c3nc(C4CC4)nc4sc(C)c(C)c34)CC2)cc1,"inconclusive: 31.6 µM [cytotoxic, partial curve]",
CC(C)C(=O)Nc1ccc(C(=O)N/N=C/c2cc(Br)cc(Br)c2O)cc1,active: 28.2 µM,

# Entries from the list above that have a furan ring, fused or not, in the order listed:
Compound,Potency,"activity change, negative = cytotoxicity"
NC(Cc1ccc(F)cc1)c1csc(Nc2cc(NCc3ccco3)ncn2)n1 (stereo unspecified),,inactive: -10.8%
OC(c1ccccc1)(c1nc(-c2cc3ccccc3o2)cs1)C(F)(F)F (stereo unspecified),,inactive: -13% [at 57.5 µM]

# Further results

Compound,Potency,"activity change, negative = cytotoxicity"
CC(=O)NC(c1ccco1)c1cc(Cl)c2cccnc2c1O (stereo unspecified),"inconclusive: 11.2 µM [cytotoxic, partial curve]",
CC1CC(C)C[N+](=C2C=C(N3CCCC3)CC(C)(C)C2)C1 (stereo unspecified),"inconclusive: 3.55 µM [cytotoxic, partial curve]",
CC(=O)Oc1ccc(N(C(C)=O)S(=O)(=O)c2ccc(Cl)cc2)c2ccccc12,"inconclusive: 39.8 µM [cytotoxic, single point]",
Cn1c(CO)c(-c2ccccc2)c2cc([N+](=O)[O-])ccc21,,inactive: -14.2%
CC(C)COc1cccc(C(=O)N(CC(=O)Nc2ccccc2C(F)(F)F)Cc2ccco2)c1,"inconclusive: 3.98 µM [cytotoxic, single point]",
Cc1cc2oc3ccc(NCCC4CCCN4C)cc3c(=O)c2cc1C (stereo unspecified),"inconclusive: 39.8 µM [cytotoxic, single point]",
COc1ccc(S(=O)(=O)Nc2ccc(F)cc2)cc1N(C)S(=O)(=O)c1ccc(Cl)cc1,"inconclusive: 25.1 µM [cytotoxic, partial curve]",
COc1cc2nc(N(C)C)nc(N)c2cc1OC,"inconclusive: 28.2 µM [cytotoxic, single point]",
Cc1nc2c(OCc3cc(Cl)cc(Cl)c3)cccn2c1N(C)C(=O)CCC1CCCC1,"inconclusive: 39.8 µM [cytotoxic, single point]",
CCOC(=O)c1ccc(/C=C2/C=C(c3ccccc3)N(c3ccc(Cl)c(C(=O)O)c3)C2=O)cc1,,inactive: -28.3% [at 57.5 µM]
COc1cccc(-c2nc(N3CCN(C)CC3)c3ccccc3n2)c1O,,inactive: -15.2%
COc1ccc2c(c1)CCCN2S(=O)(=O)c1ccc(Cl)cc1,,inactive: -21.8% [at 57.5 µM]
Cc1cc(C)c2nc(NNC(=O)c3ccc(S(=O)(=O)N4CCc5ccccc5C4)cc3)sc2c1,"inconclusive: 10 µM [cytotoxic, partial curve]",
CCOC(=O)Cc1cc(=O)n2[nH]c(C)c(-c3ccc(Cl)cc3)c2n1,"inconclusive: 35.5 µM [cytotoxic, partial curve, poor fit]",
CCCc1cc(NCc2ccccn2)n2nc(C)c(-c3ccccc3)c2n1,"inconclusive: 3.55 µM [cytotoxic, partial curve, poor fit]",
CN1C(=O)/C(=C\c2ccccc2F)Sc2ccc(C(=O)NC3CCN(Cc4ccccc4)CC3)cc21,"inconclusive: 3.55 µM [cytotoxic, single point]",
COc1ccc(C2CC(c3cccc(Cl)c3)=NN2c2ccc(S(N)(=O)=O)cc2)cc1 (stereo unspecified),,inactive: 3.61% [at 57.5 µM]
CC(C)(C)S(=O)(=O)/C(C#N)=N/Nc1ccc(Cl)cc1,"inconclusive: 22.4 µM [cytotoxic, partial curve]",
CCOC(=O)c1sc2nc(C)nc(SC(C)C(=O)N(C)c3ccccc3)c2c1C (stereo unspecified),"inconclusive: 3.16 µM [cytotoxic, partial curve, poor fit]",
CN1CCC(NC(=O)c2cc(-c3cccc(Br)c3)nc3ccccc23)CC1,"inconclusive: 31.6 µM [cytotoxic, single point]",
Cc1sc2ncnc(NCC(O)c3ccc([N+](=O)[O-])cc3)c2c1C (stereo unspecified),"inconclusive: 28.2 µM [cytotoxic, partial curve]",
Cc1cc(=O)oc2c1c(C)nn2-c1cccc(Cl)c1,,inactive: -2.37%

Compound,Potency,"activity change, negative = cytotoxicity"
COc1ccc(CCn2c(C)cc(C(=O)CSc3nc(N)cc(=O)[nH]3)c2C)cc1,"inconclusive: 2.82 µM [cytotoxic, single point]",
COc1cc(C(=O)N/N=C(\c2ccccc2)c2ccccn2)cc(OC)c1OC,active: 2.24 µM,
COc1ccc(C(=O)/C=C/c2ccc(OC3CSC3)cc2)cc1OC,,inactive: -2.31%
COc1cc(OC)c(OC)cc1/C=C1\CCC/C(=C\c2cc(OC)c(OC)cc2OC)C1=O,"inconclusive: 3.55 µM [cytotoxic, partial curve]",
N=c1ccn(CC(=O)c2ccc(-c3ccccc3)cc2)cc1,,inactive: -19.1%
O=c1cc(-c2ccccc2Cl)oc2c([N+](=O)[O-])c(O)cc(O)c12,"inconclusive: 2.51 µM [cytotoxic, partial curve, poor fit]",
O=C(c1ccoc1)N1CCN(c2cc(-c3ccco3)nc3cc(-c4ccccc4)nn23)CC1,"inconclusive: 28.2 µM [cytotoxic, partial curve]",
CC1(C)CC(N2CCN(Cc3ccccc3)CC2)=CC(=[N+]2CCCCC2)C1,,inactive: -29.1% [at 57.5 µM]
CCOC(=O)c1c(NC(=O)C(Sc2ccccc2)c2ccccc2)sc(C(=O)N(C)C)c1C (stereo unspecified),"inconclusive: 39.8 µM [cytotoxic, single point]",
COc1cccc(/C=N/NC(=O)Cn2nc(C)c([N+](=O)[O-])c2C)c1O,"inconclusive: 17.8 µM [cytotoxic, partial curve]",
CN(C)CCNC(=O)c1cccc2nc3cccc(F)c3nc12,"inconclusive: 14.1 µM [cytotoxic, partial curve]",
Cc1cc(C)cc(NS(=O)(=O)c2ccc3c(c2)c(=O)n(C)c(=O)n3C)c1,"inconclusive: 14.1 µM [cytotoxic, partial curve, poor fit]",
C[C@@H]1C[C@@H]2O[C@H]2/C=C\C=C\C(=O)Cc2c(Cl)c(O)cc(O)c2C(=O)O1,"inconclusive: 3.55 µM [cytotoxic, partial curve]",
C=CCn1c(CNc2ccccc2)nnc1SCC(=O)N/N=C/c1ccccc1O,"inconclusive: 3.55 µM [cytotoxic, partial curve, poor fit]",
CSc1nc(-c2ccc(Cl)cc2)nc(N)c1C#N,"inconclusive: 3.98 µM [cytotoxic, single point]",
Cc1c(C(=O)Nc2nccs2)sc2nc(-c3cccs3)cc(C(F)(F)F)c12,"inconclusive: 4.47 µM [cytotoxic, partial curve, poor fit]",
CSc1cccc(NC(=O)c2ccc(CN3CCc4ccccc4C3)cc2)c1,"inconclusive: 25.1 µM [cytotoxic, single point]",
COC(=O)c1ccc(N2CCOCC2)c(NC(=O)Nc2cccc(OC)c2)c1,,inactive: -8.48%
C=CCc1cccc(/C=N/NC(=O)c2ccccc2Br)c1O,"inconclusive: 25.1 µM [cytotoxic, partial curve]",
COC(=O)Cc1ccc(NC(=S)N2CCN(c3cc(Cl)ccc3C)CC2)cc1,"inconclusive: 39.8 µM [cytotoxic, partial curve, poor fit]",
Cc1cc(C)cc(NC(=O)CCC(=O)Nc2cc(C)on2)c1,,inactive: -6.58%
Cc1ccnn1CC(=O)N/N=C/c1ccc([N+](=O)[O-])s1,"inconclusive: 31.6 µM [cytotoxic, single point]",
